Source: patent US5104800A, “One-step cephalosporin C amidase enzyme” (Merck & Co., Inc., priority 1989, dated 1992)
At least one structure is not confirmed: it was looked up by name or label, or the drawing left a doubt.

System: cephalosporin C amidase from Bacillus megaterium (alpha(2) beta(2) oligomer, 722 amino acid primary translation product)
Assay: Inhibitors of purified cephalosporin C amidase
Type: biochemical
Conditions: inhibitor at 10 mM
Source text: The amino acid sequence of the cephalosporin C amidase enzyme of the present invention, recited further above, was deduced by DNA sequence analysis of the gene coding for the enzyme, and the accuracy of the results have been verified by sequencing three independent isolates from three different strains of Bacillus megaterium. However, since 100% accuracy cannot be totally assured, it has been considered desirable to also identify the cephalosporin C amidase enzyme of the present invention in terms of a number of physical and chemical attributes which it uniquely has. Purification of the enzyme for which such data has been derived is explained in more detail further below. Those data are set out in the following table:
Assay of activity: incubate 180 μl enzyme with 20 μl 20 mg/ml cephalosporin C; after 3 hours at 37° determine 7-ACA by HPLC assay
Cultures of B. megaterium were grown as described. The cells were removed from the broth by centrifugation. The broth was brought to 55% saturation with respect to ammonium sulfate and the precipitate removed by centrifugation. The supernatant was then brought to 75% saturated with respect to ammonium sulfate and the cephalosporin C amidase containing precipitate pelleted by centrifugation. […]
2. […] Formation of 7-ACA was monitored by HPLC.

In the case of `NC(CCC(=O)O)C(=O)O` (stereo not shown) [Glutamate], the “inhibition at 10 mM (potent inhibitors)” value is reported as greater than 90%.
